PubChem BioAssay AID330 (DTP/NCI, 2004)
The list shows only some results of the screen, not a fair sample: it gathers tests that were run many times, whatever their T/C, doses with no T/C, and many T/C values between a quarter and a half above the control. Further doses and runs are listed elsewhere. T/C: endpoint of the treated group in % of that of the vehicle group. Some entries give survivors of the animals treated and no T/C: the source files T/C as zero there, which appears to mark a toxic dose or a test without result, not a measured value. Some doses without a T/C left all or most animals alive at the check, yet need not have been tolerated: the source hardly ever lists a survival T/C far under the control, and the zero likely stands for such cases as well. Counts of survivors are from the toxicity check (mostly the fifth day) where no day follows; animals may have died later. Schedule codes are those of the source, read here as Q, the interval in days (D) or hours (H), X, the number of doses. For survival time, this PubChem deposit counts one and a half times the control or more as active, and values a quarter to a half above the control carry no call in these data; other NCI protocols may use other cut-offs.

System: P388 leukemia ip, CD2F1 mice, survival T/C
Experiment: NCI In Vivo Anticancer Drug Screen. Data for tumor model P388 Leukemia (intraperitoneal) in CD2F1 (CDF1) mice
Conditions: T/C endpoint: median survival time, higher T/C = longer survival
[1] = dose: 200.0 mg/kg/injection, schedule: Q01DX009 (ip), vehicle: saline with Tween-80
[2] = dose: 100.0 mg/kg/injection, schedule: Q01DX009 (ip), vehicle: saline
[3] = dose: 200.0 mg/kg/injection, schedule: Q01DX009 (ip), vehicle: saline
[4] = dose: 100.0 mg/kg/injection, schedule: Q01DX005 (ip), vehicle: saline with Tween-80
[5] = dose: 200.0 mg/kg/injection, schedule: Q01DX005 (ip), vehicle: saline with Tween-80
[6] = dose: 50.0 mg/kg/injection, schedule: Q01DX005 (ip), vehicle: Klucel (hydroxypropylcellulose) (HPC)
[7] = dose: 100.0 mg/kg/injection, schedule: Q01DX005 (ip), vehicle: Klucel (hydroxypropylcellulose) (HPC)
[8] = dose: 200.0 mg/kg/injection, schedule: Q01DX005 (ip), vehicle: Klucel (hydroxypropylcellulose) (HPC)
[9] = dose: 240.0 mg/kg/injection, schedule: Q01DX005 (ip), vehicle: saline

For `CCN(CC)C(=O)C1(C)NS(=O)(=O)c2ccccc2C1=O` (stereo not drawn), the T/C [1] was 125 % of control.
In the case of `O=Cc1nnc(-c2ccccc2)o1`, the survivor count (dose: 50.0 mg/kg/injection, schedule: Q01DX009 (ip), vehicle: DMSO) is reported as 6 of 6, the survivor count (dose: 100.0 mg/kg/injection, schedule: Q01DX009 (ip), vehicle: DMSO) is reported as 5 of 6 and the survivor count (dose: 200.0 mg/kg/injection, schedule: Q01DX009 (ip), vehicle: DMSO) is reported as 1 of 6.
`CCCCCCCCCCCC(C)[N+](C)(C)[O-]` (stereo not drawn) was tested, and the survivor count [2] was 6 of 6 and the survivor count [3] was 0 of 6.
`O=C(NCN1CCCCC1)c1ccccc1` was tested, and the T/C [4] was 125 % of control and the survivor count [5] was 2 of 5.
For `NC(N)=N/N=C/c1ccc(Cl)cc1Cl`, the survivor count [2] was 3 of 6.
`CCOC(=O)C(C(=O)OCC)[N+](=O)[O-]` was tested, and the survivor count [1] was 3 of 6 and the survivor count (dose: 400.0 mg/kg/injection, schedule: Q01DX009 (ip), vehicle: saline with Tween-80) was 1 of 6.
`COc1cc(/C=N/NS(=O)(=O)c2ccc(C)cc2)cc([N+](=O)[O-])c1O` was tested, and the survivor count (dose: 12.5 mg/kg/injection, schedule: Q01DX009 (ip), vehicle: other) was 6 of 6.
`O=C(O)C1Cc2c([nH]c3ccccc23)C(CO)N1` (stereo not drawn) was tested, and the survivor count (dose: 100.0 mg/kg/injection, schedule: Q01DX009 (ip), vehicle: suspension in saline) was 2 of 6.
For `CC(=O)OC[C@@]1(C)[C@@H]2CC[C@]3(C)[C@H](C(=O)C=C4[C@@H]5CC(C)(C)CC[C@]5(C(=O)O)CC[C@]43C)[C@@]2(C)CC[C@@H]1OC(C)=O`, the survivor count [4] was 6 of 6 and the survivor count [5] was 6 of 6.
`CCCCc1ccc2nc(C)cc(N/N=C/c3ccc(OC)c4ccccc34)c2c1` was tested, and the survivor count [6] was 6 of 6 and the survivor count [7] was 6 of 6.
For `[Cl][Ge]([Cl])([Cl])[c]1ccccc1`, the survivor count [3] was 0 of 6.
With `O=c1[nH]nc(SCc2ccccc2Cl)c(=O)[nH]1` the survivor count [8] was 6 of 6.
For `CCN(CC)C1=CC(=O)OC1OC` (stereo not drawn), the survivor count [9] was 0 of 6.
`CC1C(=O)C(Cl)(Cl)C1(C)C` (stereo not drawn) was tested, and the survivor count (dose: 400.0 mg/kg/injection, schedule: Q01DX001 (ip), vehicle: saline with Tween-80) was 1 of 6.
With `COC(=O)c1ccccc1SSCCN` the survivor count [4] was 4 of 5 and the survivor count [5] was 0 of 5.
With `[Cu].[NH-]C1CCCC2CCC[N-]C12.[NH-]C1CCCC2CCC[N-]C12` (stereo not drawn) the survivor count (dose: 25.0 mg/kg/injection, schedule: Q04DX002 (ip), vehicle: saline with Tween-80) was 3 of 6 and the survivor count (dose: 50.0 mg/kg/injection, schedule: Q04DX002 (ip), vehicle: saline with Tween-80) was 0 of 6.
For `Cc1cc(=Nc2ccc3c(c2)c(N)cc(C)[n+]3C)nc(N)n1C`, the survivor count [6] was 4 of 6, the survivor count [7] was 0 of 6 and the survivor count [8] was 0 of 6.
In the case of `COc1ccc2c(c1OC)C(=O)N1C2=Cc2c(cc3c(c2OC)OCO3)CC1N(C)C` (stereo not drawn), the survivor count [9] is reported as 4 of 6.
`O=C(COc1nccc2nc(-c3ccccc3)cn12)c1ccccc1` was tested, and the survivor count (dose: 12.5 mg/kg/injection, schedule: Q01DX009 (ip), vehicle: Klucel (hydroxypropylcellulose) (HPC)) was 6 of 6, the survivor count (dose: 25.0 mg/kg/injection, schedule: Q01DX009 (ip), vehicle: Klucel (hydroxypropylcellulose) (HPC)) was 6 of 6 and the survivor count (dose: 100.0 mg/kg/injection, schedule: Q01DX001 (ip), vehicle: Klucel (hydroxypropylcellulose) (HPC)) was 3 of 6. For the same compound, the survivor count (dose: 200.0 mg/kg/injection, schedule: Q01DX001 (ip), vehicle: Klucel (hydroxypropylcellulose) (HPC)) was 0 of 6 and the survivor count (dose: 400.0 mg/kg/injection, schedule: Q01DX001 (ip), vehicle: Klucel (hydroxypropylcellulose) (HPC)) was 0 of 6.
With `OC1COc2ccccc2OCCOCCOc2ccccc2OC1` the survivor count (dose: 120.0 mg/kg/injection, schedule: Q01DX005 (ip), vehicle: saline with Tween-80) was 1 of 6 and the survivor count (dose: 240.0 mg/kg/injection, schedule: Q01DX005 (ip), vehicle: saline with Tween-80) was 0 of 6.
For `Cc1cc(N(C)C)nc2cc(N)ccc12`, the survivor count (dose: 100.0 mg/kg/injection, schedule: Q01DX009 (ip), vehicle: saline with Tween-80) was 1 of 6 and the survivor count [1] was 0 of 6.
